{"source": "PubChem BioAssay AID624297", "about": "(National Center for Advancing Translational Sciences (NCATS), 2012)", "note": "Screen size: about 340,000 compounds; about 6,200 (1.8%) were called active. Inconclusive means that the source gave no clear call. Such entries were picked first, then a sample of the others. The call rests on the fitted dose curve; in most records, active means well fitted activation curve with a large enough effect; inconclusive means small, poorly fitted or top-dose-only effect; inactive means no such curve, though single readings can be large or run the other way. Potencies of inconclusive entries are doubtful fits and often do not repeat. Potency means the concentration at half of the fitted maximal effect.", "data": [{"assay": "A quantitative high throughput screen for small molecules that induce DNA re-replication in SW480 colon adenocarcinoma cells; further: nearly all actives have a fitted effect of over 55% in size.", "conditions": "Hoechst DNA content imaging, 48 h; series mostly up to 46.1 µM", "procedure,_shortened": "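Image-based DNA-content assay: after two days of treatment, nuclei were labelled with the DNA dye Hoechst and imaged, and hits were compounds raising the count of nuclei showing high fluorescence intensity.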", "values": [{"compound": "Cc1ccccc1OCC(=O)N/N=C/c1ccc2c(c1)OCCO2", "Potency": "inconclusive: 0.164 µM [activator, full curve, poor fit]"}, {"compound": "COc1ccccc1CC(=O)Nc1nc(-c2ccc(F)c(F)c2)cs1", "Potency": "inconclusive: 29.1 µM [activator, single point]"}, {"compound": "O=C(C=Cc1ccccc1O)c1ccccc1O", "Potency": "inconclusive: 29.1 µM [activator, single point]"}, {"compound": "COc1ccc(NC(=O)Cn2cc(C(C)=O)c3ccccc32)cc1", "Potency": "inconclusive: 4.11 µM [activator, full curve, poor fit]"}, {"compound": "O=C(Nc1cccc2ccccc12)N1CC=C(c2ccccc2)CC1", "Potency": "inconclusive: 29.1 µM [activator, single point]"}, {"compound": "O=C(NCCCCl)C1CC(=O)N(CCc2ccc(F)cc2)C1", "note": "(centres undefined)", "Potency": "inconclusive: 20.6 µM [activator, partial curve, poor fit]"}, {"compound": "CC1CCCCN1S(=O)(=O)c1ccc(C(=O)N(CCCN(C)C)c2nc3ccc(Br)cc3s2)cc1", "note": "(centres undefined)", "Potency": "inconclusive: 29.1 µM [activator, single point]"}, {"compound": "COC(=O)[C@@H]1CCCN1C(=O)CCc1nnc(CCc2c[nH]c3ccccc23)o1", "Potency": "inactive"}, {"compound": "CS(=O)(=O)N(Cc1ccc(Cl)cc1)c1ccc(C(=O)NCCSc2ccccn2)cc1", "Potency": "inconclusive: 0.92 µM [activator, full curve, poor fit]"}, {"compound": "C=CCN1C(=O)C(CC(C)C)NC1=S", "note": "(centres undefined)", "Potency": "inactive"}, {"compound": "Cc1ccc(N2CC(C(=O)Nc3cc(C(F)(F)F)ccc3N3CCCC3)CC2=O)cc1", "note": "(centres undefined)", "Potency": "inconclusive: 23.1 µM [activator, single point]"}, {"compound": "C/C(=N\\NC(=O)c1ccc([N+](=O)[O-])cc1)c1cc2ccccc2oc1=O", "Potency": "inconclusive: 29.1 µM [activator, single point]"}, {"compound": "CCCc1ccc(OCCNC(=O)c2ccccc2Br)cc1", "Potency": "inconclusive: 0.206 µM [activator, full curve, poor fit]"}, {"compound": "COc1ccccc1-c1nnc(-c2ccc(C)cc2)o1", "Potency": "inconclusive: 0.0065 µM [activator, full curve, poor fit]"}, {"compound": "COc1ccc2nc(NC(=O)c3cccnc3SC)sc2c1", "Potency": "inconclusive: 4.61 µM [activator, full curve, poor fit]"}, {"compound": "Oc1c(C(Nc2ccccn2)c2cccnc2)cc(Cl)c2cccnc12", "note": "(centres undefined)", "Potency": "active: 6.51 µM"}, {"compound": "COc1cccc(CNc2ccccc2O)c1OCc1ccccc1F", "Potency": "active: 20.6 µM"}, {"compound": "CN(C)CCCNC(=S)/N=c1\\sccn1Cc1ccccc1Cl", "Potency": "inconclusive: 29.1 µM [activator, partial curve, poor fit]"}, {"compound": "COc1cc(NC(=S)NCCC(c2ccccc2)c2ccccc2)cc(OC)c1", "Potency": "inconclusive: 32.6 µM [activator, partial curve, poor fit]"}, {"compound": "CC1CCCC(NC(=O)CSc2nnc(-c3cccnc3)n2N)C1C", "note": "(centres undefined)", "Potency": "inactive"}, {"compound": "Cc1cccc(C2c3[nH]c4ccccc4c3CCN2C(=O)c2cc(-c3cccn3C)n[nH]2)n1", "note": "(centres undefined)", "Potency": "inconclusive: 32.6 µM [activator, single point]"}, {"compound": "O=C(N/N=C/c1ccc(N2CCOCC2)cc1)c1cccs1", "Potency": "active: 6.51 µM"}, {"compound": "COc1ccc(CNC(=O)CN2c3ccccc3S(=O)(=O)c3ccccc32)cc1", "Potency": "inconclusive: 23.1 µM [activator, partial curve, poor fit]"}, {"compound": "CC(C)OC(=O)C[N+](C)(C)CCN1C(=O)C2C(c3ccccc3)C=CC(c3ccccc3)C2C1=O", "note": "(centres undefined)", "Potency": "inactive"}, {"compound": "Cc1ccc(C2=NC3(CCCC3)NC2=S)cc1", "Potency": "inactive"}, {"compound": "Cc1ccc(N2CCN(CC(O)COc3cccc4ccccc34)CC2)cc1", "note": "(centres undefined)", "Potency": "inactive"}, {"compound": "COc1ccc(N/C=C2\\CCc3ccccc3C2=O)cc1", "Potency": "inconclusive: 13 µM [activator, single point]"}, {"compound": "COc1cc(C2=NOC(C(=O)N3CCCCCC3)C2)cc(OC)c1OC", "note": "(centres undefined)", "Potency": "inactive"}, {"compound": "OC(COc1cccc(OCC(O)CN2CCCC2)c1)CN1CCCC1", "note": "(centres undefined)", "Potency": "inconclusive: 23.1 µM [activator, single point]"}, {"compound": "O=C(N/N=C/C=C\\c1ccccc1[N+](=O)[O-])c1cc(-c2ccc3ccccc3c2)n[nH]1", "Potency": "active: 8.2 µM"}, {"compound": "Cc1ccc(S(=O)(=O)NCC2CCC(C(=O)NC3CCCCC3)CC2)cc1", "note": "(centres undefined)", "Potency": "inconclusive: 20.6 µM [activator, single point]"}, {"compound": "Cc1ccc(C(=O)NCC(=O)OC(C)C(=O)Nc2ccc(N(C)C)cc2)s1", "note": "(centres undefined)", "Potency": "inconclusive: 23.1 µM [activator, single point]"}, {"compound": "COc1ccc(CCNCC(O)COc2cccc(Br)c2)cc1", "note": "(centres undefined)", "Potency": "inconclusive: 25.9 µM [activator, single point]"}, {"compound": "Cc1sc(NC(=S)NC(=O)C(C)(C)C)c(C(N)=O)c1C", "Potency": "inconclusive: 29.1 µM [activator, single point]"}, {"compound": "CN(CCC#N)C(=O)COC(=O)/C=C/c1cccs1", "Potency": "inconclusive: 0.731 µM [activator, full curve, poor fit]"}, {"compound": "COc1cc(CN2CCN(Cc3cn(C)c4ccccc34)CC2CCO)cc(OC)c1", "note": "(centres undefined)", "Potency": "inconclusive: 0.116 µM [activator, full curve, poor fit]"}, {"compound": "CCCCc1ccc(NC(=S)NCc2cccs2)cc1", "Potency": "inactive"}, {"compound": "COc1ccc(N)c(C)c1", "Potency": "inconclusive: 0.58 µM [activator, partial curve, poor fit]"}, {"compound": "Cc1cccc(S(=O)(=O)Nc2ccc(-c3nc4ccc(C)cc4s3)cc2)c1", "Potency": "inconclusive: 13 µM [activator, partial curve, poor fit]"}, {"compound": "CCCCNC(=O)[C@@](CC)(ONc1ccccc1C(F)(F)F)c1cccc2ccccc12", "Potency": "inconclusive: 29.1 µM [activator, single point]"}, {"compound": "O=C(COc1cccc2ccccc12)N1c2ccccc2CCc2ccccc21", "Potency": "inconclusive: 18.4 µM [activator, partial curve, poor fit]"}, {"compound": "COc1ccc(/C=C2\\C(=O)N(c3c(Cl)cc(Cl)cc3Cl)N=C2NC(=O)c2cccc([N+](=O)[O-])c2)cc1", "Potency": "inactive"}, {"compound": "c1ccc(-c2noc(-c3ccc4ccccc4c3)n2)nc1", "Potency": "inactive"}, {"compound": "O=C(NCC(=O)N(c1cccnc1)C(C(=O)NC1CCCC1)c1ccccc1F)c1ccco1", "note": "(centres undefined)", "Potency": "inactive"}]}]}
